# Values of other authors as cited in US6586413B2, “Methods and compositions for reducing ischemic injury of the heart by administering adenosine receptor agonists and antagonists” (The United States of America as represented by the …, priority 1999, dated 2003).
# Structures were worked out from names or drawings and are uncertain.
# Molecular target: A3 receptor
# Conditions: read-out: A3; Table II; cited from earlier work
smiles,measurement,value
CCNC(=O)[C@H]1O[C@@H](n2cnc3c(NCc4ccc([N+](=O)[O-])cc4)ncnc32)[C@H](O)[C@@H]1O,Ki,9 nM
